SMILES strings stand for the structures. Counter-ions that a name gives are not always drawn. Some of the results follow. Single values are uncertain here, since repeats match poorly.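 Cells: ReNCell VM human fetal ventral-midbrain neural progenitors, differentiated mitogen-free. Blinded raters compared doublecortin-stained (early neurons) or tyrosine hydroxylase-stained (dopaminergic neurons) images with untreated wells, where 0 means no change. After repeats and both raters were averaged, compounds scoring 2 or above became hits for retesting.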

Assay [1] concerns ReNCell VM. Put plainly: neuronal differentiation score (DCX+ cell fraction vs untreated, manual image score) (score (-3 to 3)); higher = more neuronal differentiation. The following applies: 2 uM, 2 weeks.
In assay [2] the test system is ReNCell VM. The assay is described as follows: dopaminergic neuron differentiation score (TH+ cell fraction vs untreated, manual image score) (score (0 to 3)); higher = more TH+ dopaminergic neuron differentiation. Particulars: 2 uM, 4 weeks, BDNF 10 ng/ml + GDNF 10 ng/ml.

As to `CCCCCCCCCCCCCCC[C@H](O)[C@H](N)CO` (racemic) [DL-erythro-Dihydrosphingosine], the neuronal differentiation score in the assay with ReNCell VM [1] (library: LOPAC) was inactive: -1. For the same compound, the “dopaminergic neuron differentiation score” value in the assay with ReNCell VM [2] (library: LOPAC) was inactive: 0.

Regarding `C=C(C)[C@H]1CC=C(C)CC1`, the neuronal differentiation score with ReNCell VM [1] (library: Spectrum) is inactive: 0. Moreover, the “dopaminergic neuron differentiation score” value in the assay on ReNCell VM [2] (library: Spectrum) is inactive: 0.

In the case of `C[C@]12CC[C@@H]3c4ccc(O)cc4CC[C@H]3[C@@H]1C[C@@H](O)[C@@H]2O`, the neuronal differentiation score in the assay with ReNCell VM [1] (library: Spectrum) is inactive: 0. In addition, the “dopaminergic neuron differentiation score” value in the assay on ReNCell VM [2] (library: Spectrum) is inactive: 0.

For `Cc1cn([C@H]2C=C[C@@H](CO)O2)c(=O)[nH]c1=O` [Stavudine], the neuronal differentiation score in the assay with ReNCell VM [1] (library: Prestwick) is inactive: 0. Besides, the “dopaminergic neuron differentiation score” value with ReNCell VM [2] (library: Prestwick) is inactive: 0.

Take `CN1C(C(=O)Nc2ccccn2)=C(O)c2sccc2S1(=O)=O` [Tenoxicam]: the neuronal differentiation score in the assay with ReNCell VM [1] (library: Prestwick) was inactive: 0. The “dopaminergic neuron differentiation score” value in the assay with ReNCell VM [2] (library: Prestwick) was inactive: 0.

For the compound `Cc1cc(NC(=O)Nc2ccc3c(ccn3C)c2)sn1`, the neuronal differentiation score in the assay with ReNCell VM [1] (library: LOPAC) was inactive: 0. Also, the “dopaminergic neuron differentiation score” value with ReNCell VM [2] (library: LOPAC) was inactive: 0.

Take `O=C(O)c1ccc(C=C2SC(=S)N(c3cccc(C(F)(F)F)c3)C2=O)cc1`: the neuronal differentiation score in the assay with ReNCell VM [1] (library: Tocriscreen) was inactive: 0. Also, the “dopaminergic neuron differentiation score” value in the assay on ReNCell VM [2] (library: Tocriscreen) is inactive: 0.

In the case of `OC(CCN1CCCCC1)(c1ccccc1)c1ccccc1` [Pridinol methanesulfonate salt], in the assay on ReNCell VM [1] (library: Prestwick), the neuronal differentiation score is inactive: 0. For the same compound, the “dopaminergic neuron differentiation score” value in the assay with ReNCell VM [2] (library: Prestwick) was inactive: 0.

On to `CCCCC(=O)N(Cc1ccc(-c2ccccc2-c2nnn[nH]2)cc1)[C@H](C(=O)O)C(C)C`, for which, in the assay with ReNCell VM [1] (library: Spectrum), the neuronal differentiation score was inactive: 0. Moreover, the “dopaminergic neuron differentiation score” value in the assay with ReNCell VM [2] (library: Spectrum) was inactive: 0.

As for `COc1ccc([C@@H]2CNC(=O)C2)cc1OC1CCCC1` [(R)-(-)-Rolipram], the neuronal differentiation score in the assay on ReNCell VM [1] (library: Tocriscreen) was inactive: 0. Also, the “dopaminergic neuron differentiation score” value with ReNCell VM [2] (library: Tocriscreen) was inactive: 0.

As to `O=C(O)COc1ccc(OCCNC[C@H](O)COc2ccccc2)cc1` [ICI 215,001 hydrochloride], in the assay with ReNCell VM [1] (library: Tocriscreen), the neuronal differentiation score was inactive: 0. For the same compound, the “dopaminergic neuron differentiation score” value in the assay on ReNCell VM [2] (library: Tocriscreen) was inactive: 0.

As to `CCN(CC)CCOC(=O)c1cc(Cl)c(N)cc1OC` [SDZ 205-557 hydrochloride], the neuronal differentiation score in the assay on ReNCell VM [1] (library: Tocriscreen) was inactive: 0. Also, the “dopaminergic neuron differentiation score” value with ReNCell VM [2] (library: Tocriscreen) was inactive: 0.

As for `C[C@@H](O)[C@H]1C(=O)N2C(C(=O)O)=C(SCCNC=N)C[C@H]12` [Imipenem], the neuronal differentiation score in the assay with ReNCell VM [1] (library: Prestwick) was inactive: 0. Besides, in the assay on ReNCell VM [2] (library: Prestwick), the “dopaminergic neuron differentiation score” value was inactive: 0.

Turning to `Cc1cc(CC(=O)O)n(C)c1C(=O)c1ccc(Cl)cc1`, in the assay with ReNCell VM [1] (library: Spectrum), the neuronal differentiation score is inactive: -1. Besides, in the assay with ReNCell VM [2] (library: Spectrum), the “dopaminergic neuron differentiation score” value was inactive: 0.

Take `CCN(CC)CCNC(=O)c1cc(S(C)(=O)=O)ccc1OC`: in the assay on ReNCell VM [1] (library: Spectrum), the neuronal differentiation score was inactive: 0. Further, the “dopaminergic neuron differentiation score” value in the assay with ReNCell VM [2] (library: Spectrum) was inactive: 0.

Take `COc1c2ccoc2nc2c(OC)c(O[C@@H]3O[C@@H](C)[C@H](O)[C@@H](O)[C@H]3O)ccc12` [glycoperine]: in the assay with ReNCell VM [1] (library: Natural), the neuronal differentiation score is inactive: 0. Moreover, the “dopaminergic neuron differentiation score” value in the assay on ReNCell VM [2] (library: Natural) was inactive: 0.

With `CN(C)CCOc1ccc(/C(=C(/CCCl)c2ccccc2)c2ccccc2)cc1` [Toremifene], in the assay on ReNCell VM [1] (library: Prestwick), the neuronal differentiation score was inactive: 0. Also, the “dopaminergic neuron differentiation score” value in the assay on ReNCell VM [2] (library: Prestwick) is inactive: 0.

In the case of `NCCCCN` [Putrescine dihydrochloride], the neuronal differentiation score in the assay on ReNCell VM [1] (library: LOPAC) was inactive: 0. The “dopaminergic neuron differentiation score” value with ReNCell VM [2] (library: LOPAC) is inactive: 0.

As to `O=C(Nc1cccc2cccnc12)c1ccc(N2C(=O)[C@@H]3[C@H](C2=O)[C@@H]2C=C[C@H]3C2)cc1` [endo-IWR 1], in the assay on ReNCell VM [1] (library: Tocriscreen), the neuronal differentiation score is inactive: 0. Also, in the assay on ReNCell VM [2] (library: Tocriscreen), the “dopaminergic neuron differentiation score” value is inactive: 0.

Consider `COc1cc(O)cc(O)c1C(=O)/C=C/c1ccccc1` [Cardamonin], for which the neuronal differentiation score in the assay with ReNCell VM [1] (library: Phytochemical) was inactive: 0. The “dopaminergic neuron differentiation score” value in the assay with ReNCell VM [2] (library: Phytochemical) was inactive: 0.

For `NCc1ccccc1CC(=O)N[C@@H]1C(=O)N2C(C(=O)O)=C(CSc3nnnn3CC(=O)O)CS[C@H]12` [Ceforanide], in the assay with ReNCell VM [1] (library: Prestwick), the neuronal differentiation score was inactive: 0. Moreover, the “dopaminergic neuron differentiation score” value with ReNCell VM [2] (library: Prestwick) was inactive: 0.

On to `COc1ccc(-c2c(O)c3c(OC)c4c(cc3oc2=O)OC(C)(C)C=C4)cc1`, for which the neuronal differentiation score in the assay with ReNCell VM [1] (library: Spectrum) was inactive: 0. The “dopaminergic neuron differentiation score” value in the assay with ReNCell VM [2] (library: Spectrum) is inactive: 0.

As to `C/C=C/c1ccc(OC(C)[C@@H](O)c2ccc(O)c(OC)c2)c(OC)c1` (some centres undefined), the neuronal differentiation score in the assay with ReNCell VM [1] (library: Natural) was inactive: 0. Moreover, the “dopaminergic neuron differentiation score” value with ReNCell VM [2] (library: Natural) was inactive: 0.

For the compound `CO/N=C(\C(=O)N[C@@H]1C(=O)N2C(C(=O)O)=C(CSc3nnnn3C)CS[C@H]12)c1csc(N)n1`, the neuronal differentiation score with ReNCell VM [1] (library: Spectrum) is inactive: 0. Also, the “dopaminergic neuron differentiation score” value in the assay on ReNCell VM [2] (library: Spectrum) is inactive: 0.

As to `NC(Cn1ccc(=O)c(O)c1)C(=O)O` (centres undefined), the neuronal differentiation score in the assay with ReNCell VM [1] (library: Spectrum) is inactive: 0. For the same compound, the “dopaminergic neuron differentiation score” value in the assay with ReNCell VM [2] (library: Spectrum) was inactive: 0.

On to `O=C(O)Cc1cc(I)c(Oc2ccc(O)c(I)c2)c(I)c1`, for which the neuronal differentiation score in the assay with ReNCell VM [1] (library: Spectrum) is inactive: 0. For the same compound, the “dopaminergic neuron differentiation score” value in the assay with ReNCell VM [2] (library: Spectrum) was inactive: 0.

`CCOc1ccc(NC(C)=O)cc1` [Phenacetin]: the neuronal differentiation score with ReNCell VM [1] (library: Prestwick) is inactive: 0. Also, in the assay on ReNCell VM [2] (library: Prestwick), the “dopaminergic neuron differentiation score” value was inactive: 0.

Consider `CC1=C(C(=O)O)N2C(=O)[C@@H](NC(=O)[C@H](N)c3ccc(O)cc3)[C@H]2SC1` [Cefadroxil], for which the neuronal differentiation score in the assay on ReNCell VM [1] (library: Prestwick) is inactive: 0. For the same compound, the “dopaminergic neuron differentiation score” value in the assay with ReNCell VM [2] (library: Prestwick) is inactive: 0.

As for `CC1CCN(CCCC(=O)c2ccc(F)cc2)CC1` [Melperone hydrochloride], the neuronal differentiation score with ReNCell VM [1] (library: Tocriscreen) is inactive: 0. Besides, the “dopaminergic neuron differentiation score” value in the assay on ReNCell VM [2] (library: Tocriscreen) is inactive: 0.

On to `C[C@@H]1CN(c2c(F)c(F)c3c(=O)c(C(=O)O)cn(C4CC4)c3c2F)C[C@H](C)N1`, for which, in the assay with ReNCell VM [1] (library: Spectrum), the neuronal differentiation score is inactive: 0. Also, the “dopaminergic neuron differentiation score” value in the assay on ReNCell VM [2] (library: Spectrum) was inactive: 0.

With `CN1[C@@H]2CC[C@H]1C[C@@H](OC(=O)c1c[nH]c3ccccc13)C2`, the neuronal differentiation score with ReNCell VM [1] (library: Spectrum) is inactive: 0. The “dopaminergic neuron differentiation score” value in the assay with ReNCell VM [2] (library: Spectrum) was inactive: 0.

In the case of `CC[C@]1(O)C[C@@H]2CN(CCc3c([nH]c4ccccc34)[C@@](C(=O)OC)(c3cc4c(cc3OC)N(C)[C@H]3[C@@](O)(C(=O)OC)[C@H](OC(C)=O)[C@]5(CC)C=CCN6CC[C@]43[C@@H]65)C2)C1`, the neuronal differentiation score in the assay on ReNCell VM [1] (library: Spectrum) is inactive: 0. Moreover, the “dopaminergic neuron differentiation score” value in the assay on ReNCell VM [2] (library: Spectrum) is inactive: 0.

Values taken from the supplement of paper PMC4635364.
